The list shows a part of the results. Many values rest on one well or one pass, so single values are uncertain.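 The apoptosis fraction was the count of cleaved-PARP antibody-stained nuclei relative to all DNA-stained nuclei, imaged in 1,536-well plates. Screening doses were set so most cells survived, and baseline and induced cleaved-PARP levels vary greatly across cell lines.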
Key:
Assay in all cases: cleaved PARP positive nuclei fraction relative to DMSO control; melanoma cells; higher = more apoptosis
Conditions in all cases: library dose: low library concentration; 72 h
MZ2-MEL = test system: MZ2-MEL
MeWo = test system: MeWo
RPMI7951 = test system: RPMI7951
RVH-421 = test system: RVH-421
SkMel28 = test system: SkMel28
SkMel30 = test system: SkMel30
SkMel5 = test system: SkMel5
UACC257 = test system: UACC257
UACC62 = test system: UACC62
WM115 = test system: WM115
WM1716 = test system: WM1716
WM1745 = test system: WM1745
WM3526 = test system: WM3526
WM3619 = test system: WM3619
WM451Lu = test system: WM451Lu

| Structure (SMILES) | cleaved PARP positive nuclei fraction (MZ2-MEL) | cleaved PARP positive nuclei fraction (MeWo) | cleaved PARP positive nuclei fraction (RPMI7951) | cleaved PARP positive nuclei fraction (RVH-421) | cleaved PARP positive nuclei fraction (SkMel28) | cleaved PARP positive nuclei fraction (SkMel30) | cleaved PARP positive nuclei fraction (SkMel5) | cleaved PARP positive nuclei fraction (UACC257) | cleaved PARP positive nuclei fraction (UACC62) | cleaved PARP positive nuclei fraction (WM115) | cleaved PARP positive nuclei fraction (WM1716) | cleaved PARP positive nuclei fraction (WM1745) | cleaved PARP positive nuclei fraction (WM3526) | cleaved PARP positive nuclei fraction (WM3619) | cleaved PARP positive nuclei fraction (WM451Lu) |
| --- | --- | --- | --- | --- | --- | --- | --- | --- | --- | --- | --- | --- | --- | --- | --- |
| C[C@]1(c2nc3c(C(N)=O)cccc3[nH]2)CCCN1 [Veliparib] + COc1cc(N2CCC(N3CCN(C)CC3)CC2)ccc1Nc1ncc(Cl)c(Nc2ccccc2S(=O)(=O)C(C)C)n1 [NVP-TAE684] (first compound 1.4 µM, partner dose 0.08 µM) | 86.5% | 61.5% | 109% | 222% | 239% | 51.2% | 138% | 166% | 60% | 94.8% | 104% | 126% | 71.7% | 110% | 73.3% |
| C#Cc1cccc(Nc2ncnc3cc(OCCOC)c(OCCOC)cc23)c1 [erlotinib] + COC(=O)c1sccc1S(=O)(=O)Nc1ccc(Nc2ccccc2)cc1OC [GSK0660] (first compound 0.8 µM, partner dose 1 µM) | 111% | 48.2% | 179% | 64.3% | 72.8% | 48.1% | 67% | 238% | 151% | 66.7% | 122% | 111% | 66.2% | 74.5% | 74.4% |
| O=C(CCCCCCC(=O)Nc1ccccc1)NO [vorinostat] + COc1cc(N2CCC(N3CCN(C)CC3)CC2)ccc1Nc1ncc(Cl)c(Nc2ccccc2S(=O)(=O)C(C)C)n1 [NVP-TAE684] (first compound 0.08 µM, partner dose 0.08 µM) | 102% | 52.8% | 80.8% | 23.1% | 136% | 124% | 32.8% | 218% | 81.1% | 86.4% | 118% | 91.4% | 70.5% | 90% | 105% |
| COc1cc(Nc2ncc(F)c(Nc3ccc4c(n3)NC(=O)C(C)(C)O4)n2)cc(OC)c1OC [Tamatinib] + COc1cc(N2CCC(N3CCN(C)CC3)CC2)ccc1Nc1ncc(Cl)c(Nc2ccccc2S(=O)(=O)C(C)C)n1 [NVP-TAE684] (first compound 0.4 µM, partner dose 0.08 µM) | 152% | 20.1% | 62.5% | 40.8% | 198% | 188% | 81.5% | 136% | 91% | 181% | 101% | 173% | 94% | 120% | 76.3% |
| Cn1nnc2c(C(N)=O)ncn2c1=O [temozolomide] + COc1cc(N2CCC(N3CCN(C)CC3)CC2)ccc1Nc1ncc(Cl)c(Nc2ccccc2S(=O)(=O)C(C)C)n1 [NVP-TAE684] (first compound 2 µM, partner dose 0.08 µM) | 101% | 126% | 88.8% | 45.4% | 87.4% | 36.8% | 86.5% | 64.2% | 217% | 215% | 107% | 119% | 62.8% | 79.9% | 121% |
| NC(=O)Nc1cc(-c2cccc(F)c2)sc1C(=O)N[C@H]1CCCNC1 + COc1ccc2c(c1)CCC1C2CCC2(C)C(NCCCCCCN3C(=O)C=CC3=O)CCC12 [U73122] (first compound 0.02 µM, partner dose 0.4 µM) | 113% | 100% | 35.3% | 53.7% | 95.3% | 68.1% | 56.3% | 99.5% | 120% | 143% | 91.8% | 98.1% | 64.3% | 107% | 82.5% |
| O=C(Nc1cccc(Cl)c1)Nc1ncc(CCNc2ncnc3ccsc23)s1 + COc1ccc2c(c1)CCC1C2CCC2(C)C(NCCCCCCN3C(=O)C=CC3=O)CCC12 [U73122] (first compound 0.0008 µM, partner dose 0.4 µM) | 183% | 26.1% | 90% | 26.4% | 280% | 125% | 29.2% | 38.5% | 94.1% | 114% | 77.7% | 112% | 251% | 89.2% | 83.5% |
| C[C@@H]1CCN(C(=O)CC#N)C[C@@H]1N(C)c1ncnc2[nH]ccc12 + O=C1NC(=O)/C(=C/c2ccc(-c3ccc(F)cc3O)o2)S1 [AS252424] (first compound 1 µM, partner dose 1 µM) | 87.5% | 268% | 82.8% | 23.7% | 153% | 27.5% | 57% | 49.5% | 106% | 138% | 80.6% | 100% | 80.9% | 76.8% | 108% |
| Cn1nnc2c(C(N)=O)ncn2c1=O [temozolomide] + COc1ccc(COc2ccc(Cc3cnc(N)nc3N)cc2OC)cc1 [GW2580] (first compound 2 µM, partner dose 1 µM) | 134% | 105% | 162% | 22.2% | 171% | 35% | 83.4% | 146% | 90% | 132% | 214% | 110% | 65.4% | 82.6% | 144% |
| COCC[n+]1c2c(n(Cc3cnccn3)c1C)C(=O)c1ccccc1C2=O + CCCCCCCCCCCC1=C(O)C(=O)C=C(O)C1=O [Embelin] (first compound 0.0004 µM, partner dose 1.2 µM) | 248% | 111% | 136% | 52.4% | 83.5% | 51% | 398% | 16% | 39.7% | 71.6% | 138% | 105% | 73.8% | 71.6% | 162% |
